Results are given in words; binding and its absence hold for the method and conditions named. Binding seen in cells or lysates may run through a third protein. A yes stands for co-enrichment or nearness to the bait. Other partners may have been found.
Target: C-terminal HA-tagged tPPARγΔ64D mutant with aa 1-64 deleted (HEK293T) (human) (UniProt P37231)
Experiment: affinity purification with mass spectrometry; HA-tagged full-length PPARγ or tPPARγΔ64D expressed in HEK293T; anti-HA immunoprecipitation from whole-cell extract, Protein A/G beads, low-salt washes; two bands (35 and 45 kDa) specific to tPPARγΔ64D excised, in-gel trypsin digestion, MS

B1: medium-chain acyl-CoA dehydrogenase (MCAD), endogenous in THP-1 (enzyme, human (endogenous in THP-1), UniProt P11310 26-421, looked up)
chain: KANRQREPGLGFSFEFTEQQKEFQATARKFAREEIIPVAAEYDKTGEYPVPLIRRAWELGLMNTHIPENCGGLGLGTFDACLISEELAYGCTGVQTAIEGNSLGQMPIIIAGNDQQKKKYLGRMTEEPLMCAYCVTEPGAGSDVAGIKTKAEKKGDEYIINGQKMWITNGGKANWYFLLARSDPDPKAPANKAFTGFIVEADTPGIQIGRKELNMGQRCSDTRGIVFEDVKVPKENVLIGDGAGFKVAMGAFDKTRPVVAAGAVGLAQRALDEATKYALERKTFGKLLVEHQAISFMLAEMAMKVELARMSYQRAAWEVDSGRRNTYYASIAKAFAGDIANQLATDAVQILGGNGFNTEYPVEKLMRDAKIYQIYEGTSQIQRLIVAREHIDKYKN
notes: medium-chain acyl-CoA dehydrogenase (MCAD), mitochondrial; detected and precipitated with an anti-MCAD antibody; source: endogenous, THP-1 cell extract
binding: binds
